Experiment [1] deals with GPC3 tagged with human Fc (GPC3-hFc) (UniProt P51654). The experiment can be described thus: flow cytometry, GPC3-hFc on CAR-expressing Jurkat cells.
Experiment [2] shares this target. The experiment can be described thus: Jurkat binding assay, flow cytometry.

By UniProt entry, the sequences of proteins in these tests, tags left out. Residues count along the entry.
UniProt P51654, residues 25-559: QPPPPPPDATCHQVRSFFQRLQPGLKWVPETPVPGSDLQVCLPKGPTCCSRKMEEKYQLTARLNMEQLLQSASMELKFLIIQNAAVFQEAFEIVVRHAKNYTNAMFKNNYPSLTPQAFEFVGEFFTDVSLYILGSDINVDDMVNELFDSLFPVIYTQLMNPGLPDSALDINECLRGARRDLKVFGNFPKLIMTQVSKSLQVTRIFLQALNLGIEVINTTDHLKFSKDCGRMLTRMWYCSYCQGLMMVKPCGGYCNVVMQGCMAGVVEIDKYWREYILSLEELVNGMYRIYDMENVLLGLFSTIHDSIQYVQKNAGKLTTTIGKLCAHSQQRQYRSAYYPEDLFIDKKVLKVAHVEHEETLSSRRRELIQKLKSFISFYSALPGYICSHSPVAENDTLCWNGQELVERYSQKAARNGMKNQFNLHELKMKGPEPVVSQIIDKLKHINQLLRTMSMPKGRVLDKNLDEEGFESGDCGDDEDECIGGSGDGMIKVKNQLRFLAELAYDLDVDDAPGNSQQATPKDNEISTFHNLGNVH

Results on 2 molecules are retold here after patent US20250017962A1 (US Dept. of Health and Human Services, published 2025).

No constants are given. Whether binding was seen depends on the method and setting. Some entries that bind do so weakly or less than the wild type.

B1: HN3-IgG4H-CD28TM CAR (other)
chain: HMQVQLVQSGGGLVQPGGSLRLSCAASYFDFDSYEMSWVRQAPGKGLEWIGSIYHSGSTYYNPSLKSRVTISRDNSKNTLYLQMNTLRAEDTATYYCARVNMDRFDYWGQGTLVTVSSTSESKYGPPCPPCPFWVLVVVGGVLACYSLLVTVAFIIFWVKRGRKKLLYIFKQPFMRPVQTTQEEDGCSCRFPEEEEGGCELRVKFSRSADAPAYQQGQNQLYNELNLGRREEYDVLDKRRGRDPEMGGKPRRKNPQEGLYNELQKDKMAEAYSEIGMKGERRRGKGHDGLYQGLSTATKDTYDALHMQALPPR
notes: also called HN3-IgG4-CD28TM; HN3-IgGH-CD28TM
Take B1: the binding result in experiment [1] and in experiment [2] was “binds” in each case.

B2: HN3-IgG4H-CD8TM CAR (other)
chain: HMQVQLVQSGGGLVQPGGSLRLSCAASYFDFDSYEMSWVRQAPGKGLEWIGSIYHSGSTYYNPSLKSRVTISRDNSKNTLYLQMNTLRAEDTATYYCARVNMDRFDYWGQGTLVTVSSTSESKYGPPCPPCPIYIWAPLAGTCGVLLLSLVITKRGRKKLLYIFKQPFMRPVQTTQEEDGCSCRFPEEEEGGCELRVKFSRSADAPAYQQGQNQLYNELNLGRREEYDVLDKRRGRDPEMGGKPRRKNPQEGLYNELQKDKMAEAYSEIGMKGERRRGKGHDGLYQGLSTATKDTYDALHMQALPPR
Take B2: the binding result in experiment [1] and in experiment [2] was “binds” throughout.
